Data taken from the supplement of paper PMC10849652.
The list shows a part of the results.

Chains of the proteins cited; added tags and fusions are not shown. Lines headed by an entry give the natural chain unless they say otherwise; changes in a name come on top.
UniProt A8MXV4: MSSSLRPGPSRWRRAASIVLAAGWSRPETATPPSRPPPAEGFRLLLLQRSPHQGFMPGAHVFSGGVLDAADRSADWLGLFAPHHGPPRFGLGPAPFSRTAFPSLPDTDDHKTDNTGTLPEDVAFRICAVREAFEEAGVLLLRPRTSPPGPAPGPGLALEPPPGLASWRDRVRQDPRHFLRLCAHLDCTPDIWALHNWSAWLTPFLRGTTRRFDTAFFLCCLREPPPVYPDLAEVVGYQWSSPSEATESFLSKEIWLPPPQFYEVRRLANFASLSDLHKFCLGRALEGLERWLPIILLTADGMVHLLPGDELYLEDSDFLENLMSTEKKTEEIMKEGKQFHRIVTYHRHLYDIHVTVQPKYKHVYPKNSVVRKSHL
UniProt O15504: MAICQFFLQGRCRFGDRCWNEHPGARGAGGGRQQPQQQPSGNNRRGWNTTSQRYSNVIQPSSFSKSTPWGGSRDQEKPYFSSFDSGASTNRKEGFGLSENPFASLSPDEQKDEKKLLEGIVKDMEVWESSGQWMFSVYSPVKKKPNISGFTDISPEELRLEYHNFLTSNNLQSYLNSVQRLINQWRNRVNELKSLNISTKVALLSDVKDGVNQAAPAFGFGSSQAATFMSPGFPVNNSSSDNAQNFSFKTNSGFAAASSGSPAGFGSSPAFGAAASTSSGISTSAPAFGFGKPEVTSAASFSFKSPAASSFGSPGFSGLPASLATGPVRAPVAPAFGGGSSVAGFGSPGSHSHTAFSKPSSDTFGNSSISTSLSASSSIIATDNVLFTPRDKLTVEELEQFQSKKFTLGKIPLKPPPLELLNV
UniProt O60890: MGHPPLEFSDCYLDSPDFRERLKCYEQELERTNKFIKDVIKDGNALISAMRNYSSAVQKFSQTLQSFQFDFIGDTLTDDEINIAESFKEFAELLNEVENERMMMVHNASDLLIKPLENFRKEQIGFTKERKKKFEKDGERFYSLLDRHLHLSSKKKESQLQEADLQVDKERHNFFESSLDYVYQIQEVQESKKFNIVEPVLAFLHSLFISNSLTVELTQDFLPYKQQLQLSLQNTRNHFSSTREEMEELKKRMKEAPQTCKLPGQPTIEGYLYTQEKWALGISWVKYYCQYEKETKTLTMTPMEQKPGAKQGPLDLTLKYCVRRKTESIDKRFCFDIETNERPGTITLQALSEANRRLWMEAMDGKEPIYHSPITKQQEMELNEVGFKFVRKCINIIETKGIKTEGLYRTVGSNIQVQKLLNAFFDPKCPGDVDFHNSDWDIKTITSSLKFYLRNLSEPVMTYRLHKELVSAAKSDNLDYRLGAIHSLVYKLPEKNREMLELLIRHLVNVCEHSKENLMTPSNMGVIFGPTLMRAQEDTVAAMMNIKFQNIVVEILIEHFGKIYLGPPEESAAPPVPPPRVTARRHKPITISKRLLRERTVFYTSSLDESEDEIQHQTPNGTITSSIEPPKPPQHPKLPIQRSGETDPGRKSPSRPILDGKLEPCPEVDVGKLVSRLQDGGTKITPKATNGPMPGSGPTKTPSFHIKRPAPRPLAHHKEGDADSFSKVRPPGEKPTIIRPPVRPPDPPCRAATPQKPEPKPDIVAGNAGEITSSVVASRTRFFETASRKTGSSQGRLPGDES
UniProt Q13416: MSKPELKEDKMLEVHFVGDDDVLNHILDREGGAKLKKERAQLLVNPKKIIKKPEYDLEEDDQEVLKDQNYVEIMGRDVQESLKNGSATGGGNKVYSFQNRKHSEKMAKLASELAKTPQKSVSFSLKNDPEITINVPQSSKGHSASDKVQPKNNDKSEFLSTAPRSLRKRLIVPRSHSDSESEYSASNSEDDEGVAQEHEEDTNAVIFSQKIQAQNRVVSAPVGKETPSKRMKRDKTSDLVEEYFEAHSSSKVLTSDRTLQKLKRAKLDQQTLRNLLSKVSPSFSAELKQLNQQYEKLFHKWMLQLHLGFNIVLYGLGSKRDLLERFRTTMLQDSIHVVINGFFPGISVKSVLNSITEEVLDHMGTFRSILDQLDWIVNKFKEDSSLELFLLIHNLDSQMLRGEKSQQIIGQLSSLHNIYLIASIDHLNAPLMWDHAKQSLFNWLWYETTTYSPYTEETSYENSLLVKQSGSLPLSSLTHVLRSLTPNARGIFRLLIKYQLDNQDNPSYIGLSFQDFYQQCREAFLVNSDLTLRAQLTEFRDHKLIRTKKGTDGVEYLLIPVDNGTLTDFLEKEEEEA
UniProt Q9H1P3, whole entry, looked up: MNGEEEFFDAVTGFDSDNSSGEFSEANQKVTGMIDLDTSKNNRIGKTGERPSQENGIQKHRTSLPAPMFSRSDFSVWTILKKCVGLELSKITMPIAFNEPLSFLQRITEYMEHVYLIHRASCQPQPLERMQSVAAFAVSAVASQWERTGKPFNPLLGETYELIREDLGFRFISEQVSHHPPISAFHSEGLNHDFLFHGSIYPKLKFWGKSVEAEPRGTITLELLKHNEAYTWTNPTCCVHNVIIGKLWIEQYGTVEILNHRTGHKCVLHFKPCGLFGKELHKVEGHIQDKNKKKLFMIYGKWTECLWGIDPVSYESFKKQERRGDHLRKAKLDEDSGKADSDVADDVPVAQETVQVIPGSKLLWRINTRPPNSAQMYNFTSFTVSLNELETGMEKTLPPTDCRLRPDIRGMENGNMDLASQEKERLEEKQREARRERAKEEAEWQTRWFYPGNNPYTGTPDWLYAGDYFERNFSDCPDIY
UniProt Q9BZD4: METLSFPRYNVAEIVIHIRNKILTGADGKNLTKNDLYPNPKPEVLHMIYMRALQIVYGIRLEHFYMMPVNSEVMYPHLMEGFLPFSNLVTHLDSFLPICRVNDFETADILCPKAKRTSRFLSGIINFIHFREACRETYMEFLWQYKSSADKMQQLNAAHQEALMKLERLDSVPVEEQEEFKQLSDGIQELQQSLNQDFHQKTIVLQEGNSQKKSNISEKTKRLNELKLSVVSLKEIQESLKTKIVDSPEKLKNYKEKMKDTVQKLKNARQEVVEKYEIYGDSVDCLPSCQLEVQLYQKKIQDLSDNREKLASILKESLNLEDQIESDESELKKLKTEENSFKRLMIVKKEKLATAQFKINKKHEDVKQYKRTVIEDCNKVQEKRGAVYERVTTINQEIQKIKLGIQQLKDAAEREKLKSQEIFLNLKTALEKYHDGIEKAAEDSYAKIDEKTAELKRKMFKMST
UniProt Q9ULJ1: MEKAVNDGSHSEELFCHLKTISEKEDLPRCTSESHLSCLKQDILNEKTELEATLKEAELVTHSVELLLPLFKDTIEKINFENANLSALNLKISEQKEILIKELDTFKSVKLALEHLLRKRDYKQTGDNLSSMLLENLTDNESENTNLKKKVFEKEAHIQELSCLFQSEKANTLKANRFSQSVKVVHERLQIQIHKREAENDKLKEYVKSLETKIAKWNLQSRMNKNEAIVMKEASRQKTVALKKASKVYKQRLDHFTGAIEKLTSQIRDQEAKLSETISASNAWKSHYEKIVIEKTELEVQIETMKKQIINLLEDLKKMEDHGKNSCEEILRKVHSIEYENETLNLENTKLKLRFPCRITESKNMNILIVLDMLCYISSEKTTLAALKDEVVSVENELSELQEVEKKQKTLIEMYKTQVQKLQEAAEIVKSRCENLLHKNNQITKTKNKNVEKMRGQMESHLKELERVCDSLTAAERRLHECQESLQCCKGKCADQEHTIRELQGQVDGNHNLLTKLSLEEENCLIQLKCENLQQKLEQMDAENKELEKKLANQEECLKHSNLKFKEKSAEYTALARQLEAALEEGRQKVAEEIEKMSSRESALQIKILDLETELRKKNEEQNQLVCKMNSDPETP
UniProt Q96D31, whole entry, looked up: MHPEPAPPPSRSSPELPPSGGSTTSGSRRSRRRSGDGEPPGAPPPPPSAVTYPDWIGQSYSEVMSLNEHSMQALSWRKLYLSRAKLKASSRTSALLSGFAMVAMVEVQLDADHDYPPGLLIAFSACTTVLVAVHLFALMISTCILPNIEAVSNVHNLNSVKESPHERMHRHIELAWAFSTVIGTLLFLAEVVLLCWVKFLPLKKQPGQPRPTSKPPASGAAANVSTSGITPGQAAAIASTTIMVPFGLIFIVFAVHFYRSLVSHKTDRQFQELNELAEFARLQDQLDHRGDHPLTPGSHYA
UniProt P0C024: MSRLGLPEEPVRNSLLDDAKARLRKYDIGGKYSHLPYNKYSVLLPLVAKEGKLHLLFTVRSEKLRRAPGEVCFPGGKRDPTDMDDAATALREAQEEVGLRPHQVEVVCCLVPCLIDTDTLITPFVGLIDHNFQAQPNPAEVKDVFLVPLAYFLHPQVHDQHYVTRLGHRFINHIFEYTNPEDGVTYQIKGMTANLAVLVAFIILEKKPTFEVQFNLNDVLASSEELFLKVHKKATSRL
UniProt Q6ZVK8: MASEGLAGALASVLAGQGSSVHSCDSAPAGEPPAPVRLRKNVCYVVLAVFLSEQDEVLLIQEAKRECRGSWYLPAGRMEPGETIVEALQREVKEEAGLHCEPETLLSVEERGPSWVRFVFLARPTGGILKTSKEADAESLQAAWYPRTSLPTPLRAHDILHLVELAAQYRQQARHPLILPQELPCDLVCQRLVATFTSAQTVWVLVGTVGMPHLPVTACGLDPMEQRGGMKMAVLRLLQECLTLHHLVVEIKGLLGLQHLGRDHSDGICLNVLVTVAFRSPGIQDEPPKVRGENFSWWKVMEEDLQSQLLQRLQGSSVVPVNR
UniProt P53370: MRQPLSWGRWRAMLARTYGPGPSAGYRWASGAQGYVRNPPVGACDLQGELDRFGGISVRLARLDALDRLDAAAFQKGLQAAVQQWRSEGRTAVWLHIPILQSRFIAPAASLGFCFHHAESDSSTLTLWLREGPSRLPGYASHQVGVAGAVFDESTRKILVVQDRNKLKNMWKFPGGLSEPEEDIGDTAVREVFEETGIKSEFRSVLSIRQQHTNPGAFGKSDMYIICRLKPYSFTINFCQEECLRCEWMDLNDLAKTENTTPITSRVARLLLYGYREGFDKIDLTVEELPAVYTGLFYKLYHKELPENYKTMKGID
UniProt Q8N573: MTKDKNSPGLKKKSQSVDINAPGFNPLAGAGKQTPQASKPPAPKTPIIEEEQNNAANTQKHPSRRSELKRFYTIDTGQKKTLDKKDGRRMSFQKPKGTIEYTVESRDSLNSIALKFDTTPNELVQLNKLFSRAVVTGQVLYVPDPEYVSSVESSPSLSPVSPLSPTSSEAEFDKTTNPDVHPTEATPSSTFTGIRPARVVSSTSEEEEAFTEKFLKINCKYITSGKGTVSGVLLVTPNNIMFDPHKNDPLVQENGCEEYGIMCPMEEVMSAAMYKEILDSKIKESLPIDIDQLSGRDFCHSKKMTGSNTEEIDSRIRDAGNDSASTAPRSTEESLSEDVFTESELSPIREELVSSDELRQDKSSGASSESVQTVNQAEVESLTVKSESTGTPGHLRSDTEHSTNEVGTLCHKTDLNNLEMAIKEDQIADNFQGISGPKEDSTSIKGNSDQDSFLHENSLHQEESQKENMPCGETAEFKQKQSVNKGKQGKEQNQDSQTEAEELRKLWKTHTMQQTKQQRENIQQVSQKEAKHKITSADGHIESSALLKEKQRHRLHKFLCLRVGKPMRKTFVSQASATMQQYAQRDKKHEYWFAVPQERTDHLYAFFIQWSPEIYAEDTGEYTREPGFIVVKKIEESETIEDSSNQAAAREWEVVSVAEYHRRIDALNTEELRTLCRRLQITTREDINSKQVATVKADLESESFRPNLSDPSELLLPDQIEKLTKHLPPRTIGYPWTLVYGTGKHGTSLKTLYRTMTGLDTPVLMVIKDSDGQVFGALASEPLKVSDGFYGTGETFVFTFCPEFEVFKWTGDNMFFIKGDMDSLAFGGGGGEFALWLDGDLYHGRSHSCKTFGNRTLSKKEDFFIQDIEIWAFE

Assays:
Test in all cases: log2 fold change, soluble protein after heating vs DMSO (PISA); higher = thermal stabilisation; K562 cells, 10 uM, 30 min; active = over 0.2 and 3.5 SD of the protein, either way, in both replicates (recomputed)
[1] = compound: C1=CC=C(C=C1)[C@H](COC2=CC3=C(C=C2)NC(=O)N3)NC(=O)C4=CC=CN(C4=O)CC5=CC(=C(C=C5)F)F
Method in brief: (§1)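 K562 cells at 2×10^6 cells/mL were given 10 μM compound for 30 min. Aliquots then went through 3 min of heating across 48°C-58°C, were pooled, and were extracted in PBS with 0.5% NP-40 at 4°C, and the supernatant after 21,000xg for 90 min was quantified by TMTpro 16plex LC-MS/MS with channel sums equalised. Thermal stability relative to control samples, from duplicates, is given as log2 fold change.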

[2] = compound: CC1=C(SC2=C1C(=N[C@H](C3=NN=C(N32)C)CC(=O)N)C4=CC=C(C=C4)Cl)C
Method in brief: as §1

[3] = compound: CC1=C2C(=CC=C1)N=C(N(C2=O)C3=CC=CC=C3C)CN4C=NC5=C(N=CN=C54)N
Method in brief: as §1

[4] = compound: Cc1sc2c(c1C)C(c1ccc(Cl)cc1)=N[C@@H](CC(=O)OC(C)(C)C)c1nnc(C)n1-2
Method in brief: as §1

[5] = compound: c1ccc([C@@H]2C[C@H]2NC2CCNCC2)cc1
Method in brief: as §1

Measured: log2 fold change

NUDT19 (UniProt A8MXV4)
inactive: [1] 0.017 | [2] 0.005 | [3] 0.102 | [4] -0.017 | [5] -0.026

NUP42 (UniProt O15504)
inactive: [1] 0.16 | [2] -0.195 | [4] 0.285 | [5] 0.058

OPHN1 (UniProt O60890)
inactive: [1] -0.209 | [2] 0.033 | [4] 0.008 | [5] 0.07

ORC2 (UniProt Q13416)
inactive: [1] -0.073 | [4] 0

OSBPL2 (UniProt Q9H1P3)
inactive: [2] -0.583 | [5] -0.09

NUF2 (UniProt Q9BZD4)
inactive: [1] -0.21 | [2] 0.023 | [3] -0.02 | [5] 0.07

ODF2L isoform 4 (UniProt Q9ULJ1)
inactive: [1] 0.063 | [3] 0.019

ORAI1 (UniProt Q96D31)
inactive: [1] 0.002 | [3] -0.292 | [4] -0.042

NUDT7 (UniProt P0C024)
inactive: [1] -0.077 | [4] -0.047

NUDT18 (UniProt Q6ZVK8)
inactive: [2] 0.157 | [3] 0.038 | [4] -0.092 | [5] 0.103

NUDT6 (UniProt P53370)
inactive: [2] 0.073 | [3] 0.34 | [4] -0.023 | [5] -0.212

OXR1 isoform 2 (UniProt Q8N573)
inactive: [2] 0.126 | [3] 0.025 | [4] -0.035 | [5] -0.101
